Laboratory results from US6881547B1, “Methods and reagents for treating autoimmune disorders” (priority 2001, dated 2005).
Results are given in words; binding and its absence hold for the method and conditions named. Some entries that bind do so weakly or less than the wild type. For part of these data: Sequences can lack the tags named with a protein. Each block holds one molecule with its values, some of them ahead of it.

Protein sequences, listed by entry. Tags and fused reporters are not part of them. Lines headed by an entry give the natural chain unless they say otherwise; changes in a name come on top.
UniProt Q01955: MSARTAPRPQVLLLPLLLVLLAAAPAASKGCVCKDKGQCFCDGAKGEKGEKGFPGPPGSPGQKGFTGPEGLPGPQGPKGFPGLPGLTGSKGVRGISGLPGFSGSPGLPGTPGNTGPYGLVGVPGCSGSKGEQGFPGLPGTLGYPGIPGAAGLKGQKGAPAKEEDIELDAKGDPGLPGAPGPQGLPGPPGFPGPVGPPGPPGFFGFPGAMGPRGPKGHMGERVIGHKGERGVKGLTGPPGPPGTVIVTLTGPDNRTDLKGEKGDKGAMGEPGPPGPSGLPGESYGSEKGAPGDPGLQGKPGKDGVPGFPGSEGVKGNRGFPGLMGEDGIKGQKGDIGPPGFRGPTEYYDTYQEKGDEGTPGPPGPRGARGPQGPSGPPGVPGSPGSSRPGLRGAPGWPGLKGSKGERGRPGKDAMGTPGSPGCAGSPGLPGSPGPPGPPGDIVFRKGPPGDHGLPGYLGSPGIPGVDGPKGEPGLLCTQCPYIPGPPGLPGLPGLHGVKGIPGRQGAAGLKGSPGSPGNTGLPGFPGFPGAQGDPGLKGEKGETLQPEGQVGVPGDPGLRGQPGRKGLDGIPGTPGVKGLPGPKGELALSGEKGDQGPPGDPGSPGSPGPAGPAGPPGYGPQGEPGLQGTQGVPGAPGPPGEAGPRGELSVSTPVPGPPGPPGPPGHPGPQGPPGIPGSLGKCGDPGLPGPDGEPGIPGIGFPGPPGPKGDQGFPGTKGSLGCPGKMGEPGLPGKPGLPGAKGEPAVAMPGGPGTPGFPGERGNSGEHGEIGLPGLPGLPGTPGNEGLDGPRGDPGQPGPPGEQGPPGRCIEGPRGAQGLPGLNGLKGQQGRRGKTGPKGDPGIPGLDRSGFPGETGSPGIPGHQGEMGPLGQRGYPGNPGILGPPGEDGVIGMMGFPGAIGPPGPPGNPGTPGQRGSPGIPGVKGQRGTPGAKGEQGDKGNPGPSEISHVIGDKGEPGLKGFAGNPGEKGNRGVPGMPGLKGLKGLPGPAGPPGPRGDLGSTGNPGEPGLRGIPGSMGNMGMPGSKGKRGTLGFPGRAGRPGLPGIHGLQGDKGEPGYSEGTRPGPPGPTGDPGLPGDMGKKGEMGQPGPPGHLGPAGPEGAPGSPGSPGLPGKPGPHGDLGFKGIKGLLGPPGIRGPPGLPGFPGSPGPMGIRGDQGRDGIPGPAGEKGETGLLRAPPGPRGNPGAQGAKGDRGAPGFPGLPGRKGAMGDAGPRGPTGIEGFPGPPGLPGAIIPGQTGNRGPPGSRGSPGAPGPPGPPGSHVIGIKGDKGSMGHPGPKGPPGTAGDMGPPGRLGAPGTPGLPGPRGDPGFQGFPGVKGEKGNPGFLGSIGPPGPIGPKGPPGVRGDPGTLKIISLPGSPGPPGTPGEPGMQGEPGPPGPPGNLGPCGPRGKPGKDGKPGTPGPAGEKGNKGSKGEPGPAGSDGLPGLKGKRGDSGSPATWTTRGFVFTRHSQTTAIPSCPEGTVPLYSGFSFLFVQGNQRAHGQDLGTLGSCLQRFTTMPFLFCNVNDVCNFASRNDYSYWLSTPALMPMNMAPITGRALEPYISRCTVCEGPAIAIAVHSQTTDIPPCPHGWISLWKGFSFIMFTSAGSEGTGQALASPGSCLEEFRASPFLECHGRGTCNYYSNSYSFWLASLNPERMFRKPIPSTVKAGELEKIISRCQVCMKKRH

How the values were obtained:
[1] = target: 22-25-kDa conformers of the native human α3(IV)NC1 domain (human) (UniProt Q01955); assay: far-Western
[2] = target: 27-kDa conformer of the native human α3(IV)NC1 domain (human) (UniProt Q01955); assay: disulfide-based oligomerization assay, non-oligomerized fα3 detected with α-FLAG
[3] = target: 22-25-kDa conformers of the native human α3(IV)NC1 domain (human) (UniProt Q01955); assay: as above
[4] = target: 22-25-kDa conformers of the native human α3(IV)NC1 domain (human) (UniProt Q01955); assay: far-Western on in-blot renatured human monomers, α-FLAG detection
[5] = target: 22-25-kDa conformers of the native human α3(IV)NC1 domain (human) (UniProt Q01955); assay: far-Western (fα3 binding)
[6] = target: α3(IV)NC1 domain of GP patient kidneys (human) (UniProt Q01955); assay: far-Western, α-FLAG detection
[7] = target: 22-25-kDa conformers of the native human α3(IV)NC1 domain (human) (UniProt Q01955); assay: far-Western on in-blot renatured human monomers, 30 ng/µl fα3, α-FLAG detection
[8] = target: Human recombinant GP antigen (rGP) produced in 293 cells (human) (UniProt Q01955); assay: filter overlay
[9] = target: Human recombinant GP antigen (rGP) produced in 293 cells (human) (UniProt Q01955); assay: told again of Example 1 (filter overlay with the HeLa1 fusion protein)

binding [1]: binds
binding [2]: binds
binding [3]: binds
binding [4]: binds
binding [5]: binds
binding [6]: binds
binding [7]: binds
Molecule: recombinant FLAG-tagged human α3(IV)NC1 (fα3) (from UniProt Q01955 1427-1670)

binding [8]: binds
binding [9]: binds
B1: β-galactosidase-derived fusion protein of clone HeLa1 containing the N-terminal 150 residues of GPBP (protein, not shown: large carriers)
chain: MSDNQSWNSSGSEEDPETESGPPVERCGVLSKWTNYIHGWQDRWVVLKNNALSYYKSEDETEYGCRGSICLSKAVITPHDFDECRFDISVNDSVWYLRAQDPDHRQQWIDAIEQHKTESGYGSESSLRRHGSMVSLVSGASGYSATSTSS
